Results are given in words; binding and its absence hold for the method and conditions named.
T1: dN36-MepS (residues 37-162) (E. coli) (UniProt P0AFV4)
T1 sequence: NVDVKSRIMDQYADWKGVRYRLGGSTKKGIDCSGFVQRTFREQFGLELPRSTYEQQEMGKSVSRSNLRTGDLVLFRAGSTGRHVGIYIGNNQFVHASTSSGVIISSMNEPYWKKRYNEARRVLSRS

B1: dN36-MepS (residues 37-162) (domain or fragment, UniProt P0AFV4 63-188)
chain: NVDVKSRIMDQYADWKGVRYRLGGSTKKGIDCSGFVQRTFREQFGLELPRSTYEQQEMGKSVSRSNLRTGDLVLFRAGSTGRHVGIYIGNNQFVHASTSSGVIISSMNEPYWKKRYNEARRVLSRS
modifications: 15N-labelled in the NMR experiments
B2: NlpI-ΔN (residues 37-294), monomeric mutant of NlpI (domain or fragment, UniProt P0AFB1 37-294)
chain: TLQQEVILARMEQILASRALTDDERAQLLYERGVLYDSLGLRALARNDFSQALAIRPDMPEVFNYLGIYLTQAGNFDAAYEAFDSVLELDPTYNYAHLNRGIALYYGGRDKLAQDDLLAFYQDDPNDPFRSLWLYLAEQKLDEKQAKEVLKQHFEKSDKEQWGWNIVEFYLGNISEQTLMERLKADATDNTSLAEHLSETNFYLGKYYLSLGDLDSATALFKLAVANNVHNFVEHRYALLELSLLGQDQDDLAESDQQ

Key:
[1] = biological target: T1, dN36-MepS (residues 37-162) (E. coli); assay: NMR 15N relaxation (T1/T2, rotational correlation time); 1D 15N-edited T1 and T2 of 15N mMepS and dN36-MepS alone, 800 MHz, 298 K; τc from T1/T2; both purified
[2] = biological target: NlpI-ΔN (residues 37-294), monomeric mutant of NlpI (E. coli) (UniProt P0AFB1); assay: SEC; NlpI (20-294) and NlpI-ΔN (37-294) each run alone (Supplementary Fig. 13A); both purified

Row | Binder | binding [1] | binding [2]
1 | B1 | no binding | –
2 | B2 | – | no binding

Source: article PMC11211486
